Reference: the supplement of paper PMC10849652
This is one part of the list.

Sequences of proteins named here, by UniProt entry; tags and fusion partners are left off. A change or cut given only in a name is not applied to a line headed by its entry.
UniProt Q96G74: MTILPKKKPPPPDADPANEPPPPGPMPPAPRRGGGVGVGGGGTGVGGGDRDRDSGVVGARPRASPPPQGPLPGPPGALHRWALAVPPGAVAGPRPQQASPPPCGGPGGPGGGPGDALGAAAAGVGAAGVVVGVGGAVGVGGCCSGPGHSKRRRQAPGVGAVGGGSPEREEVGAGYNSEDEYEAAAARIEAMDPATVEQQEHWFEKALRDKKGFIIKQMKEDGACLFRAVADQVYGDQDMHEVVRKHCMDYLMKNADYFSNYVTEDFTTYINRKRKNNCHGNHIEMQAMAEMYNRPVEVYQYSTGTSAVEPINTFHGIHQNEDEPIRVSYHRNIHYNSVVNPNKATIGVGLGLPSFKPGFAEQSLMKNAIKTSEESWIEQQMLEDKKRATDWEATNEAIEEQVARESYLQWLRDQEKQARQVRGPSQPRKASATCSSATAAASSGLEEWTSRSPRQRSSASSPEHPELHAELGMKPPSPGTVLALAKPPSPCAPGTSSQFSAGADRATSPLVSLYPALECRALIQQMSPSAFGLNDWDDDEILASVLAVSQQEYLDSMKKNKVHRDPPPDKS
UniProt P00480: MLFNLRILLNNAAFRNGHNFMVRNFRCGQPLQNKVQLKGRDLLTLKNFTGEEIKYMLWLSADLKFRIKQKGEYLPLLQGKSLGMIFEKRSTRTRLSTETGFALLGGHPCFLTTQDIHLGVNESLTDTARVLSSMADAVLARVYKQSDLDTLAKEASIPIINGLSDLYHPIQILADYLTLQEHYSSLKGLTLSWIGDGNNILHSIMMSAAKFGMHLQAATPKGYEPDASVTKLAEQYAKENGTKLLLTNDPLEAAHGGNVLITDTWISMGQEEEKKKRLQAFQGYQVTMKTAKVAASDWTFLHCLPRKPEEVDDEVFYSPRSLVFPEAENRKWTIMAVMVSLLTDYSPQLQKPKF
UniProt Q8N543: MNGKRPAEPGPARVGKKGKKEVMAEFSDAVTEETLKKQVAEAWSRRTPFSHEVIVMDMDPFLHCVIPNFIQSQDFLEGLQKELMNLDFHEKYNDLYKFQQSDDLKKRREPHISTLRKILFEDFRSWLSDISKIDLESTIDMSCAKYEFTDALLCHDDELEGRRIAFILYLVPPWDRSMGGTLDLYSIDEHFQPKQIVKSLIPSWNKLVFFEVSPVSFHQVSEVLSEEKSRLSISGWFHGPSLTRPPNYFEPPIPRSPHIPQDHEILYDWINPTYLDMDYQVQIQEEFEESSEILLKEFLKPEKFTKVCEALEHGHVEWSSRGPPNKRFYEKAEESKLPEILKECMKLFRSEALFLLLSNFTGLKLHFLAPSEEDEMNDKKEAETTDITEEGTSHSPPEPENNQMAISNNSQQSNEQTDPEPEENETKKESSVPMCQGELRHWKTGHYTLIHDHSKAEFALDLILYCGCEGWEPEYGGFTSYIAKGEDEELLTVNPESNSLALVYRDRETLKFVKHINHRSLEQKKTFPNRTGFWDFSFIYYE
UniProt Q9BXS6: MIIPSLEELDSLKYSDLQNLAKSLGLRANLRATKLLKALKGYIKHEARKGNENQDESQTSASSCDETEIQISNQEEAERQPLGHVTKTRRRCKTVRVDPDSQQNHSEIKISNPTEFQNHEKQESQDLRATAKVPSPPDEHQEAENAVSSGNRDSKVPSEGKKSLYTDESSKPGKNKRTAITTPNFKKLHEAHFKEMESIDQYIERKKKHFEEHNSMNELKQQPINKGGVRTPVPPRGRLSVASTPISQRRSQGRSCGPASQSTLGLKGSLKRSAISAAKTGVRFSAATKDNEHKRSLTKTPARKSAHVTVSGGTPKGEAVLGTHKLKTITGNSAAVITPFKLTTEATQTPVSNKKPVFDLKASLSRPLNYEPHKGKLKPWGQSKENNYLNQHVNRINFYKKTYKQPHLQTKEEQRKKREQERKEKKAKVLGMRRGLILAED
UniProt O95747, whole entry, looked up: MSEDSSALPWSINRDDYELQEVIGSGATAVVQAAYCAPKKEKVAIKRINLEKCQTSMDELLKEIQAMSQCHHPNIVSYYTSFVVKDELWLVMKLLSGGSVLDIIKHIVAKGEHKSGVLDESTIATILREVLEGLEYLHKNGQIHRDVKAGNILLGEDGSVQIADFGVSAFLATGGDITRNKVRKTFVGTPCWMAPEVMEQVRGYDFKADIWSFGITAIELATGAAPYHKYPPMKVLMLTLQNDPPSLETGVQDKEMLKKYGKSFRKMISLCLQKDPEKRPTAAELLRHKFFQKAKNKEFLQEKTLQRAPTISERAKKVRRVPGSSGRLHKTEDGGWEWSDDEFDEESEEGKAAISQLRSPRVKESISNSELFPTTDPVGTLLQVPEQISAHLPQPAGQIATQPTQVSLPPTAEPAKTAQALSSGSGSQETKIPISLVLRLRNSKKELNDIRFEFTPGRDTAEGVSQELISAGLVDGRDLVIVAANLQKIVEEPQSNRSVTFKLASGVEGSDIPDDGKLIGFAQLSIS
UniProt Q96HP4: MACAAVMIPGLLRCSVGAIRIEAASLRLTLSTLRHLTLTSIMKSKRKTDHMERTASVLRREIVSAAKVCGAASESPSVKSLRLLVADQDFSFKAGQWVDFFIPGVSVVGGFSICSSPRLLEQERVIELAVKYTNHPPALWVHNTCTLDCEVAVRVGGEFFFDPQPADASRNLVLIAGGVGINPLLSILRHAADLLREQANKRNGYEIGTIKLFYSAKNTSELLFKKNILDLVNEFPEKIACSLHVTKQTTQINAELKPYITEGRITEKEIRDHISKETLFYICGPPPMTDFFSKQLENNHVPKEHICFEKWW
UniProt Q96E22: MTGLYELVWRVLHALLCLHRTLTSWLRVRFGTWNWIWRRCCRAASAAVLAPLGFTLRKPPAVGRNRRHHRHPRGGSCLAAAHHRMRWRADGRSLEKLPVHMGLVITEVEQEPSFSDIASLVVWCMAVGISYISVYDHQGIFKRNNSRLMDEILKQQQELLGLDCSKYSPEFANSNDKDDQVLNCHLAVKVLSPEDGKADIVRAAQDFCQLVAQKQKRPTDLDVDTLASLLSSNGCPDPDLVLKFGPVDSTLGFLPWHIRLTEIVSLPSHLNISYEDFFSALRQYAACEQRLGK
UniProt Q9H6K4: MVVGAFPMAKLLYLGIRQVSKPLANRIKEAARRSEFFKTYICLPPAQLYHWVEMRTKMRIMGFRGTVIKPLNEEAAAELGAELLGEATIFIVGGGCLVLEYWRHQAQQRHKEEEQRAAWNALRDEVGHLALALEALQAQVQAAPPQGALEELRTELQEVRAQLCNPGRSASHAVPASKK
UniProt Q9BRP4: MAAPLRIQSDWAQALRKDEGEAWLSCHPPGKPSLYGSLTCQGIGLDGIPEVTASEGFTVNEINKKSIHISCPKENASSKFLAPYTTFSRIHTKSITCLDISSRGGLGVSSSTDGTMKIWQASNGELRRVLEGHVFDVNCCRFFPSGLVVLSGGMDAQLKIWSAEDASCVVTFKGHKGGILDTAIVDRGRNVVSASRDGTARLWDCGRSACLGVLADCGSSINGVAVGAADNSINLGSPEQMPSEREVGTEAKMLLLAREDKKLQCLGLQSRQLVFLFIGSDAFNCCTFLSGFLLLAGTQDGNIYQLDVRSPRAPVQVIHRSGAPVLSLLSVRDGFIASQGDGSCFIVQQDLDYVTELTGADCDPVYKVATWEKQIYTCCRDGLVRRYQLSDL
UniProt Q9NRP0: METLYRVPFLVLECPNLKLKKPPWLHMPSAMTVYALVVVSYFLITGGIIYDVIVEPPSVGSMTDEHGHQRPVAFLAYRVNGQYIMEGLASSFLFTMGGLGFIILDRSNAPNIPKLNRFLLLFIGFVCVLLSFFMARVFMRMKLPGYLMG
UniProt Q5W0B1: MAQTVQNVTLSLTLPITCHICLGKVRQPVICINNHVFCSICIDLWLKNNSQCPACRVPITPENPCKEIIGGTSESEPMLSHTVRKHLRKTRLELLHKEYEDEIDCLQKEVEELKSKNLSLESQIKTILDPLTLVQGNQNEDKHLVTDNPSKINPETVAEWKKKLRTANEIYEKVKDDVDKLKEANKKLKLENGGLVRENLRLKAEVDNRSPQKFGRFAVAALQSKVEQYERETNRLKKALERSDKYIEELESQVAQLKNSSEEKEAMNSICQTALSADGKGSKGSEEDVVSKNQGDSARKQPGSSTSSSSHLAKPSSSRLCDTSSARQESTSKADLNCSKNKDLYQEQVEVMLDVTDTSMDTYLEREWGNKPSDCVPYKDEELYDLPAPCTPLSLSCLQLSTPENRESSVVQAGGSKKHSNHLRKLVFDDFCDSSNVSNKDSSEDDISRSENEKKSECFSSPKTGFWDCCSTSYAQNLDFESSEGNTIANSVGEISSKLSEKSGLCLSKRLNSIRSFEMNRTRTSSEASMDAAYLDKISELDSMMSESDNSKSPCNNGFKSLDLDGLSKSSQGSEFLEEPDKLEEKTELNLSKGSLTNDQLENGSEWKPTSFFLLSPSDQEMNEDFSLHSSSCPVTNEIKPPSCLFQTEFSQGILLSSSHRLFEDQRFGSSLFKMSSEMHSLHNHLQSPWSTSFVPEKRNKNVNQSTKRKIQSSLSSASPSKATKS
UniProt Q01804: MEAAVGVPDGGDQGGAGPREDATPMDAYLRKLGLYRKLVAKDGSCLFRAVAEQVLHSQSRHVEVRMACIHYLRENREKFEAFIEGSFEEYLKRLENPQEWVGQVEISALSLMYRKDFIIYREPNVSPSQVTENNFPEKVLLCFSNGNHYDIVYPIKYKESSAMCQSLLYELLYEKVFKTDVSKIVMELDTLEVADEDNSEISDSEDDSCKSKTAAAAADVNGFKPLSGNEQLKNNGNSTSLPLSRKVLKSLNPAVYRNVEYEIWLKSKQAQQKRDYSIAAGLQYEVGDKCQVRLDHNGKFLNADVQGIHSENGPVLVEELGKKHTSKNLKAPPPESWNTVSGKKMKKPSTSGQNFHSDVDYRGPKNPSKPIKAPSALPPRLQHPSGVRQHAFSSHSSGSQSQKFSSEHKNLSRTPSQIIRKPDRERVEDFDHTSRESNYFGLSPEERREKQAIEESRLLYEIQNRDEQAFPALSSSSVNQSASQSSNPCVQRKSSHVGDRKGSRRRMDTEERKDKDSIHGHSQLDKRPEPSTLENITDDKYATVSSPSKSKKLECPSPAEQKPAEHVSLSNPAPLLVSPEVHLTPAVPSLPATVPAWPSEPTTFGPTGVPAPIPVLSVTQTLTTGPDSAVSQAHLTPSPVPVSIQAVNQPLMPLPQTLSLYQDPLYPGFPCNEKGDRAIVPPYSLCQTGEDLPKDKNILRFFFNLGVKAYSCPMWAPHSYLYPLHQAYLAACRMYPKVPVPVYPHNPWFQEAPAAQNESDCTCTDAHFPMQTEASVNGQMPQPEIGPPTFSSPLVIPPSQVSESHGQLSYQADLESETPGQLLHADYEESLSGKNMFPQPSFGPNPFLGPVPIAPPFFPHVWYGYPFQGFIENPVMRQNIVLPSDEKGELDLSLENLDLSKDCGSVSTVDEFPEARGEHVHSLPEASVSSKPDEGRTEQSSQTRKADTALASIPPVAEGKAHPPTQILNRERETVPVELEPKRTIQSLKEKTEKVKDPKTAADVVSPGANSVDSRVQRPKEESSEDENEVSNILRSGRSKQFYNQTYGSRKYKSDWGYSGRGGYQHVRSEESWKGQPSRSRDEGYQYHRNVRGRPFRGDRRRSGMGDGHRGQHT
UniProt Q6VY07, whole entry, looked up: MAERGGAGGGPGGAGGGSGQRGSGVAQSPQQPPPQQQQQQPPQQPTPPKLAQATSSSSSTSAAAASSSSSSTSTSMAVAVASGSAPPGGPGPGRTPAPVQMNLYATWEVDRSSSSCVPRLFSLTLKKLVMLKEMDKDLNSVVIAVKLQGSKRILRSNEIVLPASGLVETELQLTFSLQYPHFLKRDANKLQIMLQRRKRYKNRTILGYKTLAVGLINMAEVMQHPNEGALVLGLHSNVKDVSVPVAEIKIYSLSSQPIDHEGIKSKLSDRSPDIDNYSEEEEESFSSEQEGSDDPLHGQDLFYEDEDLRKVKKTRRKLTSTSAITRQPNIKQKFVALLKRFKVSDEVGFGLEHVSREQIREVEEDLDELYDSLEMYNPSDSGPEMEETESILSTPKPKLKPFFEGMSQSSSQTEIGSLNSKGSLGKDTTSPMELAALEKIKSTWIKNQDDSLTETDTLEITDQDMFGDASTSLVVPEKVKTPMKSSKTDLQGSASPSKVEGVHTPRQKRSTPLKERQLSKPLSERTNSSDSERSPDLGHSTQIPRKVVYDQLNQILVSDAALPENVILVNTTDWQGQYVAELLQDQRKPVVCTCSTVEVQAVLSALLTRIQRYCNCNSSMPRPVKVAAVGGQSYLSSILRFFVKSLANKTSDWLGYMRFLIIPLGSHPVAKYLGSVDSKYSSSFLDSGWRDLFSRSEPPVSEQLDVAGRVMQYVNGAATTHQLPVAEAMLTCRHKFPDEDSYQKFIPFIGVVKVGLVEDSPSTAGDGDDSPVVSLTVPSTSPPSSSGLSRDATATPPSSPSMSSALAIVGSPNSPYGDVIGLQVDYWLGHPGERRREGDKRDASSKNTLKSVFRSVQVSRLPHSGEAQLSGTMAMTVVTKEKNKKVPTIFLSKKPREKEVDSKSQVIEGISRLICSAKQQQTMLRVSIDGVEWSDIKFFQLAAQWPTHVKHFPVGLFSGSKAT

What was measured:
Assay in all cases: log2 fold change, soluble protein after heating vs DMSO (PISA); higher = thermal stabilisation; K562 lysate, 10 uM; active = over 0.2 and 3.5 SD of the protein, either way, in both replicates (recomputed)
lapatinib = compound: CS(=O)(=O)CCNCc1ccc(-c2ccc3ncnc(Nc4ccc(OCc5cccc(F)c5)c(Cl)c4)c3c2)o1 [lapatinib]
In short: (§1)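 Quantification was by TMTpro 16plex LC-MS/MS with equalised channel sums, applied to the supernatant after 21,000xg for 90 min. Samples were crude K562 extract at 1 mg/mL protein in PBS pH 7.4 with 1 mM MgCl2, treated with 10 μM compound for 30 min, heated for 3 min across 48°C-58°C, pooled and brought to 0.5% NP-40 at 4°C. Values are log-two fold changes in thermal stability relative to solvent controls, from duplicates.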

pictilisib = compound: CS(=O)(=O)N1CCN(Cc2cc3nc(-c4cccc5[nH]ncc45)nc(N4CCOCC4)c3s2)CC1 [pictilisib]
In short: as §1

crizotinib = compound: C[C@@H](Oc1cc(-c2cnn(C3CCNCC3)c2)cnc1N)c1c(Cl)ccc(F)c1Cl [crizotinib]
In short: as §1

[1] = compound: C[C@H](C1=CC=C(C=C1)C(=O)NC2=C3C=CNC3=NC=C2)N
In short: as §1

duvelisib = compound: C[C@H](Nc1ncnc2nc[nH]c12)c1cc2cccc(Cl)c2c(=O)n1-c1ccccc1 [duvelisib]
In short: as §1

gandotinib = compound: Cc1cc(Nc2cc(CN3CCOCC3)c3nc(C)c(Cc4ccc(Cl)cc4F)n3n2)n[nH]1 [gandotinib]
In short: as §1

tozasertib = compound: Cc1cc(Nc2cc(N3CCN(C)CC3)nc(Sc3ccc(NC(=O)C4CC4)cc3)n2)n[nH]1 [tozasertib]
In short: as §1

doramapimod = compound: Cc1ccc(-n2nc(C(C)(C)C)cc2NC(=O)Nc2ccc(OCCN3CCOCC3)c3ccccc23)cc1 [doramapimod]
In short: as §1

bafetinib = compound: Cc1ccc(NC(=O)c2ccc(CN3CC[C@H](N(C)C)C3)c(C(F)(F)F)c2)cc1Nc1nccc(-c2cncnc2)n1 [bafetinib]
In short: as §1

[2] = compound: Cc1cccc(CC(=O)N2CCc3c2ccc(-c2cn(C)c4ncnc(N)c24)c3F)n1
In short: as §1

nilotinib = compound: Cc1cn(-c2cc(NC(=O)c3ccc(C)c(Nc4nccc(-c5cccnc5)n4)c3)cc(C(F)(F)F)c2)cn1 [nilotinib]
In short: as §1

[3] = compound: Cc1nc(Nc2n[nH]c3c2CN(C(=O)N[C@H](CN(C)C)c2ccccc2)C3(C)C)c2sccc2n1
In short: as §1

dasatinib = compound: Cc1nc(Nc2ncc(C(=O)Nc3c(C)cccc3Cl)s2)cc(N2CCN(CCO)CC2)n1 [dasatinib]
In short: as §1

[4] = compound: Cc1ncc(-c2ccnc(Nc3ccc(S(C)(=O)=O)cc3)n2)n1C(C)C
In short: as §1

[5] = compound: Cn1cc(-c2ccc3c(c2)CCN3C(=O)Cc2cccc(C(F)(F)F)c2)c2c(N)ncnc21
In short: as §1

quisinostat = compound: Cn1cc(CNCC2CCN(c3ncc(C(=O)NO)cn3)CC2)c2ccccc21 [quisinostat]
In short: as §1

tipifarnib = compound: Cn1cncc1[C@@](N)(c1ccc(Cl)cc1)c1ccc2c(c1)c(-c1cccc(Cl)c1)cc(=O)n2C [tipifarnib]
In short: as §1

[6] = compound: NC(=O)Nc1cc(-c2cccc(F)c2)sc1C(=O)N[C@H]1CCCNC1
In short: as §1

[7] = compound: NC(=O)c1cnc(N[C@@H]2CCCC[C@@H]2N)nc1Nc1cccc(-n2nccn2)c1
In short: as §1

[8] = compound: NC1(c2ccc(-c3nc4ccn5c(=O)[nH]nc5c4cc3-c3ccccc3)cc2)CCC1
In short: as §1

Measured: log2 fold change

OTUD5 isoform 5 (UniProt Q96G74)
inactive: lapatinib -0.007 | pictilisib 0.01 | crizotinib -0.008 | [1] -0.024 | duvelisib -0.014 | gandotinib 0.048 | tozasertib -0.059 | doramapimod 0.045 | bafetinib -0.039 | [2] 0.029 | nilotinib 0.022 | [3] -0.009 | dasatinib 0.013 | [4] -0.058 | [5] 0.025 | quisinostat -0.005 | tipifarnib 0 | [6] 0.023 | [7] -0.001 | [8] -0.025

OTC (UniProt P00480)
inactive: lapatinib -0.118 | pictilisib -0.026 | crizotinib -0.273 | duvelisib 0.159 | gandotinib -0.003 | tozasertib 0.161 | doramapimod 0.168 | bafetinib -0.412 | [2] 0.377 | nilotinib -0.105 | [3] -0.023 | dasatinib -0.347 | [4] -0.159 | [5] 0.106 | quisinostat -0.492 | tipifarnib 0.054 | [6] -0.055 | [7] 0.071 | [8] -0.075
active: [1] -4.33

OGFOD1 (UniProt Q8N543)
inactive: lapatinib 0 | pictilisib -0.008 | crizotinib 0.02 | [1] 0.002 | duvelisib -0.01 | gandotinib -0.011 | tozasertib -0.017 | doramapimod -0.017 | bafetinib -0.047 | [2] 0.008 | nilotinib -0.027 | [3] 0.007 | dasatinib 0.008 | [4] -0.035 | [5] 0.018 | quisinostat 0.041 | tipifarnib 0.021 | [6] 0.028 | [7] 0.008 | [8] 0.07

NUSAP1 (UniProt Q9BXS6)
inactive: lapatinib -0.004 | pictilisib -0.018 | crizotinib 0.045 | duvelisib -0.022 | gandotinib 0.141 | tozasertib -0.001 | doramapimod -0.011 | bafetinib 0.008 | nilotinib -0.001 | [3] 0.004 | dasatinib 0.045 | [4] -0.009 | [5] -0.047 | quisinostat 0.038 | tipifarnib -0.016 | [6] -0.024 | [7] 0.002 | [8] -0.055
active: [1] -0.334 | [2] 0.217

OXSR1 (UniProt O95747)
inactive: lapatinib -0.034 | pictilisib -0.018 | crizotinib -0.026 | [1] 0.034 | duvelisib -0.016 | gandotinib -0.074 | tozasertib -0.004 | doramapimod 0.014 | bafetinib -0.035 | [2] -0.022 | nilotinib -0.002 | [3] 0.008 | dasatinib -0.022 | [4] -0.023 | [5] 0.024 | quisinostat -0.07 | tipifarnib 0.01 | [6] 0.049 | [7] 0.034 | [8] -0.021

OXNAD1 (UniProt Q96HP4)
inactive: lapatinib 0.004 | pictilisib -0.05 | crizotinib -0.039 | [1] 0.076 | duvelisib 0.022 | gandotinib -0.09 | tozasertib -0.006 | doramapimod 0.073 | bafetinib 0.059 | [2] 0.027 | nilotinib 0.024 | [3] 0.029 | dasatinib -0.017 | [4] -0.031 | [5] 0.06 | quisinostat -0.037 | tipifarnib -0.008 | [6] 0.084 | [7] 0.017 | [8] 0.043

NUS1 (UniProt Q96E22)
inactive: lapatinib 0.008 | pictilisib -0.015 | crizotinib 0.099 | [1] 0.169 | duvelisib 0.073 | gandotinib -0.105 | tozasertib 0.001 | doramapimod -0.013 | bafetinib -0.028 | [2] -0.023 | nilotinib -0.081 | [3] 0.052 | dasatinib 0.129 | [4] 0.032 | [5] -0.054 | quisinostat 0.067 | tipifarnib -0.005 | [6] 0.065 | [7] 0.042 | [8] -0.001

OPA3 (UniProt Q9H6K4)
inactive: lapatinib 0.008 | pictilisib -0.014 | crizotinib -0.03 | [1] 0.045 | duvelisib -0.03 | gandotinib 0.012 | tozasertib -0.174 | doramapimod -0.028 | bafetinib -0.091 | [2] 0.089 | nilotinib -0.097 | [3] -0.039 | dasatinib -0.012 | [4] 0.103 | [5] -0.013 | quisinostat 0.013 | tipifarnib -0.005 | [6] 0.024 | [7] -0.015 | [8] -0.084

PAAF1 (UniProt Q9BRP4)
inactive: lapatinib -0.011 | pictilisib -0.012 | crizotinib 0.006 | [1] -0.043 | duvelisib 0.009 | gandotinib 0.055 | tozasertib -0.047 | doramapimod 0.004 | bafetinib 0.011 | [2] 0.048 | nilotinib 0.017 | [3] 0.005 | dasatinib 0.028 | [4] -0.015 | [5] 0.012 | quisinostat 0.004 | tipifarnib 0.011 | [6] -0.021 | [7] -0.013 | [8] 0.002

PAFAH2 (UniProt Q99487)
inactive: lapatinib 0.026 | pictilisib -0.019 | crizotinib -0.003 | [1] -0.027 | duvelisib 0.034 | gandotinib 0.164 | tozasertib 0.121 | doramapimod -0.003 | bafetinib -0.159 | [2] 0.167 | nilotinib 0.017 | [3] -0.015 | dasatinib -0.003 | [4] 0.021 | [5] 0.019 | quisinostat 0.03 | tipifarnib 0.029 | [6] 0.068 | [7] 0.239 | [8] -0.056

OSTC (UniProt Q9NRP0)
inactive: lapatinib 0.055 | pictilisib -0.029 | crizotinib -0.199 | [1] -0.111 | duvelisib -0.106 | gandotinib -0.015 | tozasertib 0.113 | doramapimod 0.068 | bafetinib -0.111 | [2] 0.223 | nilotinib 0.046 | [3] -0.108 | dasatinib 0 | [4] 0.07 | [5] -0.127 | quisinostat -0.162 | tipifarnib -0.083 | [6] 0.017 | [7] 0.014 | [8] 0.004

OBI1 (UniProt Q5W0B1)
inactive: lapatinib 0.17 | pictilisib 0.019 | crizotinib -0.064 | [1] 0.049 | duvelisib 0.004 | gandotinib -0.153 | tozasertib -0.026 | doramapimod -0.011 | bafetinib -0.054 | [2] -0.01 | nilotinib -0.105 | [3] -0.007 | dasatinib 0 | [4] 0.072 | [5] 0.043 | quisinostat -0.093 | tipifarnib -0.024 | [6] 0.119 | [7] -0.008 | [8] -0.034

OTUD4 (UniProt Q01804)
inactive: lapatinib -0.064 | pictilisib -0.012 | crizotinib -0.013 | [1] -0.083 | duvelisib -0.007 | gandotinib 0.001 | tozasertib -0.018 | doramapimod -0.041 | bafetinib -0.011 | [2] -0.021 | nilotinib -0.071 | [3] 0.032 | dasatinib 0.001 | [4] -0.012 | [5] -0.013 | quisinostat -0.034 | tipifarnib 0.025 | [6] 0.041 | [7] -0.044 | [8] 0

OXA1L (UniProt Q15070)
inactive: lapatinib -0.036 | pictilisib -0.015 | crizotinib -0.051 | [1] -0.097 | duvelisib -0.034 | gandotinib 0 | tozasertib 0.038 | doramapimod -0.022 | bafetinib -0.061 | [2] 0.09 | nilotinib -0.007 | [3] -0.019 | dasatinib 0.01 | [4] 0.056 | [5] -0.009 | quisinostat 0.027 | tipifarnib -0.025 | [6] 0 | [7] 0.011 | [8] -0.01

PACS1 (UniProt Q6VY07)
inactive: lapatinib 0.005 | pictilisib -0.013 | crizotinib -0.008 | [1] 0.002 | duvelisib -0.025 | gandotinib 0.002 | tozasertib 0.05 | doramapimod 0.019 | bafetinib -0.015 | [2] -0.002 | nilotinib -0.032 | [3] -0.027 | dasatinib 0.012 | [4] 0.027 | [5] 0.016 | quisinostat -0.021 | tipifarnib 0.003 | [6] 0.023 | [7] 0.001 | [8] 0.009

PANK1 (UniProt Q8TE04)
active: gandotinib -0.31
inactive: lapatinib -0.008 | pictilisib 0.151 | crizotinib -0.018 | [1] 0.106 | duvelisib 0.099 | tozasertib 0.069 | doramapimod 0.041 | bafetinib -0.062 | [2] -0.253 | nilotinib -0.005 | [3] 0.014 | dasatinib -0.028 | [4] -0.05 | [5] 0.053 | quisinostat -0.039 | tipifarnib 0.079 | [6] 0.062 | [7] -0.007 | [8] 0.062
